This is an account of results in PMC10863919.

Protein sequences, listed by entry. Tags and fused reporters are not part of them. Lines headed by an entry give the natural chain unless they say otherwise; changes in a name come on top.
UniProt O95197: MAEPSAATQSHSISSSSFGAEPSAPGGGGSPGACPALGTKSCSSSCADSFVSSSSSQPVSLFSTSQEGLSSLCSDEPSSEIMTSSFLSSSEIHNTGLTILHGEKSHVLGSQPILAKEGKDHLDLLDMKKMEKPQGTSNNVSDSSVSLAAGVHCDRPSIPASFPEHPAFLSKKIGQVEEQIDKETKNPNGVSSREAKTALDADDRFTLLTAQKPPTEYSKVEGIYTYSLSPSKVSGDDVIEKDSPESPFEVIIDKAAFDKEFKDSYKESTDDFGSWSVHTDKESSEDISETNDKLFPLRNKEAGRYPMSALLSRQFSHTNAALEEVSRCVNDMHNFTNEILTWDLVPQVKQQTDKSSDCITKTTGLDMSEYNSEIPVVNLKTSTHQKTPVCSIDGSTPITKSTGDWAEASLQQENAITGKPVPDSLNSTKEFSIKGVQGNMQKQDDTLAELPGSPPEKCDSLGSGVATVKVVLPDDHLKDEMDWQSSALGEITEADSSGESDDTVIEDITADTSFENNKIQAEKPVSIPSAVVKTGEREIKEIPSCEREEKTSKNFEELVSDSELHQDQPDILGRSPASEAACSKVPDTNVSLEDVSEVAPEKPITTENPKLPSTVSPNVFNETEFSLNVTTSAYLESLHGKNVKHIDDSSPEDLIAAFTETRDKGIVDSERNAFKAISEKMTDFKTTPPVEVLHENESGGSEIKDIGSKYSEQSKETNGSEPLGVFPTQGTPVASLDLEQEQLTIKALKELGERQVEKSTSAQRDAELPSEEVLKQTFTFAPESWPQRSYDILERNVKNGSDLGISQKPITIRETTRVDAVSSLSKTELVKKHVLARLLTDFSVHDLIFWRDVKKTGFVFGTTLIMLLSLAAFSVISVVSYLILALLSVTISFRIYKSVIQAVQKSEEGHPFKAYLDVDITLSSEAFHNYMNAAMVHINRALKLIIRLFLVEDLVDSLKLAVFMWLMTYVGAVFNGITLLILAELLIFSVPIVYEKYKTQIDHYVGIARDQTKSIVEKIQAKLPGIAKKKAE

For the test, the target named is Reticulon 3 (RTN3), expressed in HUVECs (human) (UniProt O95197). Briefly: co-IP; HUVECs, plasmids transfected for 48 h; lysate; anti-myc or anti-flag magnetic beads (Beyotime); performed as in ref. 12.

These are yes or no findings as the source states them, for the method shown. In cells and extracts the contact can be indirect. Binding can be weak; no strength is given.

B1: Ceramide synthase 1 (CERS1) in HUVECs (enzyme, UniProt P27544 1-350)
chain: MAAAGPAAGPTGPEPMPSYAQLVQRGWGSALAAARGCTDCGWGLARRGLAEHAHLAPPELLLLALGALGWTALRSAATARLFRPLAKRCCLQPRDAAKMPESAWKFLFYLGSWSYSAYLLFGTDYPFFHDPPSVFYDWTPGMAVPRDIAAAYLLQGSFYGHSIYATLYMDTWRKDSVVMLLHHVVTLILIVSSYAFRYHNVGILVLFLHDISDVQLEFTKLNIYFKSRGGSYHRLHALAADLGCLSFGFSWFWFRLYWFPLKVLYATSHCSLRTVPDIPFYFFFNALLLLLTLMNLYWFLYIVAFAAKVLTGQVHELKDLREYDTAEAQSLKPSKAEKPLRNGLVKDKRF
In the case of B1, the binding result is given as “binds”.
